The labels stand for the following.
B1: il10ra_site1_sap_14_mot_564a9b831269b2f1d390e2a66eecb176_0001_1_af2_000000064_0001_36_49_H_._HHH_b1_02782_af2_0001_0000300012_0000001_0_0001 (protein)
chain: SSSSSSEEYEEEVRELLEEAERIEDERERNEVLLEALKLAIQGQDPELLRLVWRVVHRLSSSSSS
B2: il10ra_site1_normal_mot_HHH_b1_01879_000000050_0001_1_18_H_._HHH_b1_00882_0001_0000100001_0000001_0 (protein)
chain: SSSSDKEELLKLIARASALAARLNDKETEKRLFQLLIRFWRHGDPRYAEEAEELREELEGSSSSS
B3: il10ra_site1_normal_mot_HHH_b1_02062_000000185_0001_1_20_H_._HHH_b1_02799_af2_0001_0000300032_0000001_0 (protein)
chain: SSSSDELLQEVYELSREAAELDSDGDKEEAEKILEEAEEIAKELGNELFLFQVEYMLRLLKSSSS
B4: il10ra_site1_sap_11_mot_HHH_b1_01307_000000115_0001_1_18_H_._HHH_b1_05552_0001_0000400045_0000001_0_0001 (protein)
chain: SSSSSSEEEEEIRELLEEAEKTEDPREVAKLLLEAVQLAYELQDPELLREVWRVAKKLGSSSSSS
B5: il10ra_site1_sap_21_mot_HHH_b1_05860_000000142_0001_1_19_H_._HHH_b1_07135_af2_0001_0000500015_0000001_0_0001 (protein)
chain: SSSSSSDELLELARRAFRLLLRGDDEEARKILEELEELAEENNNERLLKVVRDMLKALNSSSSSS
B6: il10ra_site1_sap_5_mot_HHH_b1_06788_af2_000000238_0001_19_36_H_._0fbcb473b9ca24b82a5a132671845698_0001_af2_0001_0000100003_0000001_0_0001_af2pred_0001 (protein)
chain: SSSSDDEERLTKRLVESTLEWAKRASEEALEYVLRVAKHLAKALNDEELLKLVEEVEEELSSSSS
B7: il10ra_site1_normal_mot_HHH_b1_04015_af2_000000074_0001_1_17_H_._HHH_b1_04757_af2_0001_0000200012_0000001_0 (protein)
chain: SSSSDESEELTEKVEKELEELLERGDYEEAYKLLKRAIERLVELNDPEAARRLSQAFVKNSSSSS
B8: il10ra_site1_normal_mot_2c1a291787c6f40772924d4e9068d803_0001_af2_000000187_0001_34_48_H_._HHH_b1_04545_af2_0001_0000100008_0000001_0_af2pred_0001 (protein)
chain: SSSSSSEEERILRLLAEAWRLLQKGDPEEAEKLLEEALRLAEEINDEALRLAIELLLETLSSSSS
B9: il10ra_site1_sap_15_mot_HHH_b2_03183_af2_000000055_0001_40_56_H_._HHH_b1_01569_0001_0000100008_0000001_0_0001_af2pred_dldesign_0_af2pred (protein)
chain: SSSSSDPRAEVRRLLEEAKKLEDPEKRADVLRQATRLAWELGDAELIRLVAKVAAELEKSSSSSS
B10: il10ra_site1_normal_mot_HHH_b1_02116_000000087_0001_1_17_H_._HHH_b1_00365_af2_0001_0000200009_0000001_0_af2pred_0001 (protein)
chain: SSSSSSEEEYERVRELLERATQISDEEEVRELLEEARELAEELGSQNLRFVIEFLLRRLSSSSSS
B11: il10ra_site1_sap_15_mot_HHH_b2_00984_000000042_0001_1_20_H_._38696baa2df05fb6b55d0053d3ac79c4_0001_1_0001_0000700012_0000002_0_0001 (protein)
chain: SSSSSDATERLMELIRRAAELDQNGNPEEAEKVLEEAEELAEEEGNFAVLFAVRLLLEILSSSSS
B12: il10ra_site1_sap_21_mot_HHH_b1_06804_000000054_0001_40_54_H_._HHH_b2_03021_0001_0000100008_0000001_0_0001 (protein)
chain: PRNEVIQRLVRLAFREGDPELLRALWKLVELAKEGDPEAEELLEEVAELLKKDEEEAKRLLKELG
B13: il10ra_site1_normal_mot_HHH_b2_03220_af2_000000223_0001_23_40_H_._HHH_b2_00966_0001_0000200034_0000001_0 (protein)
chain: SSSSNEENEEIWRLIREALELLAEGDPEEAREVAEEAEELAREANNPVLLFAIRLLLRDINSSSS
B14: il10ra_site1_normal_mot_HHH_b1_00103_000000293_0001_1_15_H_._HHH_b2_03403_0001_0000200013_0000001_0_af2pred_0001 (protein)
chain: SSSSSSSEEIREVIKLLKKAWEIDDPEEAREVVQEAVELAEEAGDEELLKLARLLLKQLSSSSSS
B15: il10ra_site1_sap_24_mot_674797ffa33fc4f31d963a7257083862_0001_000000202_0001_1_12_H_._HHH_b2_05362_0001_0000300013_0000001_0_0001 (protein)
chain: SSSSSSDEASQEIMELLRRALQIEDPEEARELVEEALELAEENNNMLFLWQAEFLLKRLSSSSSS
B16: il10ra_site1_normal_mot_HHH_b1_01082_af2_000000031_0001_3_19_H_._HHH_b1_02728_af2_0001_0000300015_0000001_0 (protein)
chain: SSSSDELYELVKKVIEKVVELLRNGNPEEAREEIEKILEEVEELGNLVLLASLEHLLRLEFSSSS
B17: il10ra_site1_sap_26_mot_HHH_b1_03314_af2_000000278_0001_42_55_H_._HHH_b2_05136_0002_0000600012_0000001_0_0001_af2pred_dldesign_0_af2pred (protein)
chain: SSSSSSSPEEKAEELYKQYLAAKTEEEKQKLFQELLDLALKTECLKAAQLANEFLKEGSSSSSSS
B18: il10ra_site1_normal_mot_HHH_b1_05357_000000034_0001_23_39_H_._HHH_b2_01639_0001_0000100001_0000002_0 (protein)
chain: SSSSSSDSEEEVEELLEEAKQIEDRRRRSHVLIRAYAIANRANDPELEELVKKVAIELSSSSSSS

This is one part of the list.

The results in this text go back to article PMC10163288.

The term apparent Kd denotes the concentration giving half-maximal binding under the conditions of the assay.

This assay addresses il10ra, Q13651. The experiment in a line: yeast display titration.
With B1, the “apparent Kd” value was “inactive: no binding seen”. On to B2, for which the “apparent Kd” value was “inactive: no binding seen”. On to B3, for which the “apparent Kd” value was “inactive: no binding seen”.

Turning to B4, the “apparent Kd” value was “inactive: no binding seen”.

As for B5, the “apparent Kd” value is “inactive: no binding seen”.

As for B6, the “apparent Kd” value was “inactive: no binding seen”.

As to B7, the “apparent Kd” value is “inactive: no binding seen”. As for B8, the “apparent Kd” value is “inactive: no binding seen”. Turning to B9, the “apparent Kd” value was “inactive: no binding seen”. As to B10, the “apparent Kd” value was “inactive: no binding seen”. The same measure for B11: “inactive: no binding seen”; for B12: “inactive: no binding seen”; for B13: “inactive: no binding seen”. As for B14, the “apparent Kd” value was “inactive: no binding seen”. As for B15, the “apparent Kd” value was “inactive: no binding seen”. As to B16, the “apparent Kd” value is “inactive: no binding seen”. For B17, the “apparent Kd” value was “inactive: no binding seen”. Then B18, with inactive: > 155 nM.
